Reference: article doi:10.1101/2023.05.04.539414
No constants are given. Whether binding was seen depends on the method and setting. Some entries that bind do so weakly or less than the wild type. Blank lines part the entries; values can stand above or below the binder they belong to.

Tests used:
[1] = target: T1, TOL-1 ECR (residues D26-S996), purified (Caenorhabditis elegans) (UniProt Q9N5Z3); assay: SEC
T1 sequence (chain, N-linked glycans on eight asparagine residues (seen in the crystal structure)): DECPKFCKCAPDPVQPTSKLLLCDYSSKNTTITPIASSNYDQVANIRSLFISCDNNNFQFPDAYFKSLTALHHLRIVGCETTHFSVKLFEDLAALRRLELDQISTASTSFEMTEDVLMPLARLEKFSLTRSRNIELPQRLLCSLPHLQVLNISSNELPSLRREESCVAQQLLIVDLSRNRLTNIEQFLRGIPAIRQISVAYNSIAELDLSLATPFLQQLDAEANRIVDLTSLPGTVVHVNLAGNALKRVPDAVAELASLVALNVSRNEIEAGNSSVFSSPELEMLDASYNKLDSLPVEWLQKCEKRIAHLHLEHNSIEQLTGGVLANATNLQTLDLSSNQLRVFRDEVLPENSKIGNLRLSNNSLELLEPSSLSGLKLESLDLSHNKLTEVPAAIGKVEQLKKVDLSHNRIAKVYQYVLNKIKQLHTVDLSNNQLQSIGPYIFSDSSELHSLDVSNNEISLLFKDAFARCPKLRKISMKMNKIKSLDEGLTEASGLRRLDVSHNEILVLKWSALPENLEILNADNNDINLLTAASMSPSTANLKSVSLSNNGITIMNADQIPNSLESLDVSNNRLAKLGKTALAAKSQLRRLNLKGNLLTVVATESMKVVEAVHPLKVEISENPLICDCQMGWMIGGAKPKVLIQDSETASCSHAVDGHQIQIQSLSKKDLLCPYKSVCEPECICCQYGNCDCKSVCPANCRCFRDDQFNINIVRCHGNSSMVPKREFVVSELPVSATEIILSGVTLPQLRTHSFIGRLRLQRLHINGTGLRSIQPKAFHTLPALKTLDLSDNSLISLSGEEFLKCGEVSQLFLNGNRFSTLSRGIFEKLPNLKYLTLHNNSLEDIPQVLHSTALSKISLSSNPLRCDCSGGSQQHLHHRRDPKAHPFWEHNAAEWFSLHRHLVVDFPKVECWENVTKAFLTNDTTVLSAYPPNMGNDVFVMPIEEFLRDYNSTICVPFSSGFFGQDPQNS

[2] = target: T1, TOL-1 ECR (residues D26-S996), purified (Caenorhabditis elegans); assay: cryo-EM structure
[3] = target: T1, TOL-1 ECR (residues D26-S996), purified (Caenorhabditis elegans); assay: crystal structure

binding [1]: binds | binding [2]: binds
B1: LAT-1 ECR (residues S28-T552), purified (domain or fragment, UniProt G5EDW2 28-552)
chain: SNKPTTDESGTISHTICDGEAAELSCPAGKVISIVLGNYGRFSVAVCLPDNDIVPSNINCQNHKTKSILEKKCNGDSMCYFTVDKKTFTEDPCPNTPKYLEVKYNCVVPATTTTTTTTTSTTTTDSSLIVDEEEEAQKDALNSDVIKPVKKKEDVFCSATNRRGVNWQNTKSGTTSSAPCPEGSSGKQLWACTEEGQWLTEFPNSAGCESNWISSRNSVLSGVISSEDVSGLPEFLRNLGSETRRPMVGGDLPKVLHLLEKTVNVIAEESWAYQHLPLSNKGAVEVMNYMLRNQEIWGSWDVTKRKEFASRFILAAEKAMVASAKGMMTSAESNVIVQPAITVEISHKIKMSSQPTDYILFPSAALWNGQNVDNVNIPRDAILKINKDETQVFFSSFDNLGAQMTPSDVTVAIAGTDQTEVRKRRVVSRIVGASLIENGKERRVENLTQPVRITFYHKESSVRHLSNPTCVWWNHHELKWKPSGCKLSYHNKTMTSCDCTHLTHFAVLMDVRGHDLNEIDQTLLT

binding [1]: binds | binding [3]: binds
B2: LAT-1 Lec domain (residues T32-P136), purified (domain or fragment, UniProt G5EDW2 32-136)
chain: TTDESGTISHTICDGEAAELSCPAGKVISIVLGNYGRFSVAVCLPDNDIVPSNINCQNHKTKSILEKKCNGDSMCYFTVDKKTFTEDPCPNTPKYLEVKYNCVVP
